{"source": "PubChem BioAssay AID652243 (Drosophila RNAi Screening Center, 2013)", "screen": "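Fly regulators of androgen-dependent reporter output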 (primary screen)", "system": "Drosophila S2R+ cells", "reagent": "long dsRNA against Drosophila genes", "timing": "72 h (48 h, then 24 h hormone)", "challenge": "synthetic androgen R1881 at 10 nM for 24 h", "measured": "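Per-well raw luminescence of the androgen-driven firefly reporter and of the Renilla control, two replicates each, without normalisation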", "reading the numbers": "firefly reporter light: higher = more light from androgen-responsive reporter; Renilla control light: higher = more constitutive control signal (cell number, transfection)", "call rule": "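Across duplicate plates, a knock-down whose log firefly/Renilla ratio shifted a set fold down or up from the GFP/LacZ control mean was a hit; the downward cut appears as both 1.5 and 3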", "meaning of the calls": "active = hit: reporter lowered or raised; inactive = no hit", "note": "The screen tested about 24,000 reagents; shown is an unselected part of those that have a named target and a result. Over the whole deposit, 246 (1%) got an active call. 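Plates not normalised; calls are printed but the firefly/Renilla ratio behind them is not deposited; fold cut for lowering reported inconsistently.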 The raw values are shown without normalisation. Not given: the amount of reagent."}
The opening 2 entries as a preview:
{"target gene": "DCP2", "dsRNA": "DRSC10597", "firefly reporter light, replicate 1": 74195, "firefly reporter light, replicate 2": 52413, "Renilla control light, replicate 1": 1.07e6, "Renilla control light, replicate 2": 4.60e5, "activity call": "inactive"}
{"target gene": "CG5326", "dsRNA": "DRSC13568", "firefly reporter light, replicate 1": 53133, "firefly reporter light, replicate 2": 83950, "Renilla control light, replicate 1": 73383, "Renilla control light, replicate 2": 1.27e5, "activity call": "inactive"}

The list itself, from the first entry:
{"target gene": "DCP2", "dsRNA": "DRSC10597", "firefly reporter light, replicate 1": 74195, "firefly reporter light, replicate 2": 52413, "Renilla control light, replicate 1": 1.07e6, "Renilla control light, replicate 2": 4.60e5, "activity call": "inactive"}
{"target gene": "CG5326", "dsRNA": "DRSC13568", "firefly reporter light, replicate 1": 53133, "firefly reporter light, replicate 2": 83950, "Renilla control light, replicate 1": 73383, "Renilla control light, replicate 2": 1.27e5, "activity call": "inactive"}
{"target gene": "CG5326", "dsRNA": "DRSC15770", "firefly reporter light, replicate 1": 1.35e5, "firefly reporter light, replicate 2": 1.07e5, "Renilla control light, replicate 1": 8.40e5, "Renilla control light, replicate 2": 8.54e5, "activity call": "inactive"}
{"target gene": "CG5326", "dsRNA": "DRSC23719", "firefly reporter light, replicate 1": 3.20e5, "firefly reporter light, replicate 2": 2.92e5, "Renilla control light, replicate 1": 3.60e5, "Renilla control light, replicate 2": 3.65e5, "activity call": "inactive"}
{"target gene": "Ankle2", "dsRNA": "DRSC20105", "firefly reporter light, replicate 1": 24332, "firefly reporter light, replicate 2": 42579, "Renilla control light, replicate 1": 7.39e5, "Renilla control light, replicate 2": 8.20e5, "activity call": "inactive"}
{"target gene": "Ankle2", "dsRNA": "DRSC20106", "firefly reporter light, replicate 1": 4.23e5, "firefly reporter light, replicate 2": 4.47e5, "Renilla control light, replicate 1": 3.77e6, "Renilla control light, replicate 2": 3.61e6, "activity call": "inactive"}
{"target gene": "CG8306", "dsRNA": "DRSC07141", "firefly reporter light, replicate 1": 3.72e5, "firefly reporter light, replicate 2": 4.83e5, "Renilla control light, replicate 1": 4.18e5, "Renilla control light, replicate 2": 5.39e5, "activity call": "inactive"}
{"target gene": "CG8306", "dsRNA": "DRSC24656", "firefly reporter light, replicate 1": 1.09e6, "firefly reporter light, replicate 2": 9.47e5, "Renilla control light, replicate 1": 1.25e6, "Renilla control light, replicate 2": 1.42e6, "activity call": "inactive"}
{"target gene": "GEFmeso", "dsRNA": "DRSC06748", "firefly reporter light, replicate 1": 2.56e5, "firefly reporter light, replicate 2": 3.67e5, "Renilla control light, replicate 1": 3.67e5, "Renilla control light, replicate 2": 4.88e5, "activity call": "inactive"}
{"target gene": "GEFmeso", "dsRNA": "DRSC06940", "firefly reporter light, replicate 1": 85933, "firefly reporter light, replicate 2": 93219, "Renilla control light, replicate 1": 1.74e6, "Renilla control light, replicate 2": 1.48e6, "activity call": "inactive"}
{"target gene": "GEFmeso", "dsRNA": "DRSC21475", "firefly reporter light, replicate 1": 4.91e5, "firefly reporter light, replicate 2": 5.28e5, "Renilla control light, replicate 1": 1.63e6, "Renilla control light, replicate 2": 1.61e6, "activity call": "inactive"}
{"target gene": "dmt", "dsRNA": "DRSC16932", "firefly reporter light, replicate 1": 1.03e5, "firefly reporter light, replicate 2": 1.63e5, "Renilla control light, replicate 1": 1.99e6, "Renilla control light, replicate 2": 1.95e6, "activity call": "inactive"}
{"target gene": "Orc4", "dsRNA": "DRSC04634", "firefly reporter light, replicate 1": 9.97e5, "firefly reporter light, replicate 2": 5.51e5, "Renilla control light, replicate 1": 1.23e6, "Renilla control light, replicate 2": 1.07e6, "activity call": "inactive"}
{"target gene": "Orc4", "dsRNA": "DRSC29134", "firefly reporter light, replicate 1": 5.46e5, "firefly reporter light, replicate 2": 6.93e5, "Renilla control light, replicate 1": 1.29e6, "Renilla control light, replicate 2": 1.47e6, "activity call": "inactive"}
{"target gene": "CG14323", "dsRNA": "DRSC14802", "firefly reporter light, replicate 1": 87166, "firefly reporter light, replicate 2": 84738, "Renilla control light, replicate 1": 1.82e6, "Renilla control light, replicate 2": 1.95e6, "activity call": "inactive"}
{"target gene": "Spn43Ad", "dsRNA": "DRSC06770", "firefly reporter light, replicate 1": 3.03e5, "firefly reporter light, replicate 2": 2.74e5, "Renilla control light, replicate 1": 1.73e6, "Renilla control light, replicate 2": 9.30e5, "activity call": "inactive"}
{"target gene": "Porin2", "dsRNA": "DRSC02584", "firefly reporter light, replicate 1": 2.49e5, "firefly reporter light, replicate 2": 2.54e5, "Renilla control light, replicate 1": 1.09e6, "Renilla control light, replicate 2": 1.78e6, "activity call": "inactive"}
{"target gene": "Mip", "dsRNA": "DRSC23429", "firefly reporter light, replicate 1": 4.63e5, "firefly reporter light, replicate 2": 4.42e5, "Renilla control light, replicate 1": 5.16e5, "Renilla control light, replicate 2": 5.09e5, "activity call": "inactive"}
{"target gene": "Cyp6g1", "dsRNA": "DRSC07386", "firefly reporter light, replicate 1": 8.78e5, "firefly reporter light, replicate 2": 6.82e5, "Renilla control light, replicate 1": 1.61e6, "Renilla control light, replicate 2": 1.29e6, "activity call": "inactive"}
{"target gene": "RAF2", "dsRNA": "DRSC10443", "firefly reporter light, replicate 1": 31664, "firefly reporter light, replicate 2": 35165, "Renilla control light, replicate 1": 4.22e5, "Renilla control light, replicate 2": 2.29e5, "activity call": "inactive"}
{"target gene": "RAF2", "dsRNA": "DRSC10454", "firefly reporter light, replicate 1": 2.33e5, "firefly reporter light, replicate 2": 2.18e5, "Renilla control light, replicate 1": 1.43e6, "Renilla control light, replicate 2": 1.44e6, "activity call": "inactive"}
{"target gene": "RAF2", "dsRNA": "DRSC26436", "firefly reporter light, replicate 1": 1.98e5, "firefly reporter light, replicate 2": 1.79e5, "Renilla control light, replicate 1": 4.45e5, "Renilla control light, replicate 2": 4.32e5, "activity call": "inactive"}
